The campaign covered roughly 53,000 sequences. About 3,700 (7%) were called active.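 Rule for the calls: active = gene knockdowns whose robust z-score for IL-1 alpha signal is at least 2 or at most -2, so actives lie on both sides; inactive = the rest.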 The list shows a part of the results.

A short description of the test: Components of the Cytosolic LPS Sensing Pathway: Gene Identification via Genome-wide siRNA Screen.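 Note: robust z of the log signal after scaling to non-targeting control siRNA wells of the plate.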 Particulars: RAW264.7 macrophages, IL-1a HTRF, actives lie on both sides, screened at 100 nM (by protocol), cells primed 5 h with Pam3CSK4 first. In outline:
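Using IL-1a HTRF as read-out, the screen measured release from RAW264.7 cells after 48h siRNA knockdown (100 nM), 5 h Pam3CSK4 priming and 24 h cytosolic LipidA. Values were expressed relative to negative-control wells as robust z-scores.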
For orientation: In TR-FRET formats the signal depends on donor and acceptor labels being close together.
For the sequence GGGAUACCAUCUUUAUGGCTT against Vwa3b, the z-score is inactive: -0.041. Next, GGAGGUAUUGGUUUCAUCCTT against Impdh2: inactive: 1.09; GCCACCUGGUUAAAUUAAATT against Ceacam9: inactive: 0.658. With GCUAGUUACAAGCAAGCAGTT against Zfp763, the z-score was inactive: -0.636. Next, GGAAAACCAUACCAAAAUGTT against Hmox2: inactive: 0.248; CGAGAACAACACUUGGAAUTT against Ubxn4: inactive: -0.665; GGCAUGCUGAUGGAGUUUUTT against Vip: inactive: 0.953. The value for GCCACCAAAUUUAUGGUAUTT against Rnf185 was inactive: -0.58. On to CCAAUCUACUCCUAAGAACTT against Vmn1r84, for which the z-score is inactive: -0.142. With GCCGACUUUAAUGACUGCUTT against Cmtm4, the z-score is inactive: 1.71.

Consider CGUACAAUAAUUUGUCUACTT against Slc9a6, for which the z-score is inactive: 1.4. Consider GGAGAUGCAAAGCUACUCUTT against Epha8, for which the z-score was inactive: -0.604. Next, GGGAGGACAUCCAGACAAUTT against Fam13b: inactive: -0.305. The value for AUAAAUAGGUAACAGAACCTT against Olfr121 was inactive: -0.786; that for GGAUCUAUAGAAUAGCUCUTT against Rbm39 was inactive: -1.37; that for GGCUUUUUCUACAUGCGCCTT against Olfr1104 was inactive: -0.236. For GGCAUAAGAAAAUGGACCCTT against Fhit, the z-score is active: 2.04. The value for GGAUAGUGAAGUCAUUGAATT against Pbrm1 was inactive: 1.43. Next, GGCCAUUCUGUCAAAUUCATT against Smpd1: inactive: 0.545; GGGUCAUUCUGCUAUUCCUTT against Taar7d: inactive: -1.46. The value for GCAGCAUACUAAUAAACUGTT against Acot13 was inactive: 0.134; that for GCUAAACUCGCUCAAUCUGTT against Cd14 was inactive: 0.537; that for GGUCUUCUGUCCAUUAGUGTT against Pigc was inactive: 0.14.

On to GGUGGAUGAAAUCUACACATT against Gtpbp2, for which the z-score was inactive: 0.359. The value for GGUGAAGAAUGCUACACAATT against Htr5a was inactive: 1.03.

For the sequence CCAAAAGGCGUAUUUUGGCTT against Anp32a, the z-score was inactive: -0.193. Next, GGAAAAUGCCAUGAAAAAGTT against Ccdc60: inactive: -0.545. As to GCAAACGCAGCAGAAUAGCTT against Washc3, the z-score is inactive: 0.187. The value for CGUCGUUAACAACACUUUGTT against Gns was inactive: 0.637; that for GGAAGAUAGUGUUUUCCACTT against Olfr802 was inactive: -0.342. For GGUGAGGAAGUCCUGUGUCTT against Lynx1, the z-score was inactive: -0.449. As for GGAAGAGCUUCCCUGUCUATT against Gltpd2, the z-score was inactive: 0.487. Next, GGAAUUCCUCUGUAUGAAATT against Pgr: inactive: -0.824; GGAUCAAUUCUAGAAUCAGTT against Runx3: inactive: 0.586; CGAUGCUGUGGAACUGCACTT against Ptgfrn: inactive: 0.417. As for CCCAUUACAAUGUCACCAGTT against Erp27, the z-score is inactive: -0.278. The value for GGGAGAUAGCCGAUAUAUCTT against Ebp was inactive: -0.904.

As to CCAUAUGAUAAGCAUAAGCTT against Zfp449, the z-score is inactive: 0.149.

With GGAUGACCAAGAAUGGGAATT against Dap, the z-score was inactive: 0.341.

As to GGGAAAAGUGACAAUUGCUTT against Dusp8, the z-score is inactive: 0.757.

With GAGCUCCUCUGCUUUCUCUTT against Ms4a6d, the z-score was active: -2.74. Next, “CGUCUUUGCCCAUACACUCTT against A230052G05Rik”: inactive: -0.917. The value for GGGAGAGGUGUUACACCCUTT against Adamts10 was inactive: -0.887; that for GGGCUAAUUUAAACACCUATT against Rdh19 was inactive: -0.0625. Consider CCGUCAUCACUGAUCAGUUTT against Olfr684, for which the z-score was active: 2.7. The value for CCCAUAGAACAUCUUAAAATT against Ifi202b was inactive: -0.403. Next, GGACUUUCUUAACUACACUTT against Slc2a3: inactive: 0.865; GGUGAGUGAUCUUCAGAACTT against Snx13: inactive: 0.311. On to GGUGGAUUCUUUCUCCUUCTT against Fundc2, for which the z-score is inactive: 1.18. The value for GGCAUUACUGGGUACCUACTT against Acot8 was inactive: 1.18. Next, GGAGAAAGCUUACUGCCUUTT against Lrrc6: inactive: -0.959; CCAGUAUUCAUGUAAAUGGTT against Crbn: inactive: 0.753.

For GGCAAAUGGAUCUUUAUAATT against Eef1aknmt, the z-score is inactive: -0.928. For GGACAAGUUUGAAUUUGACTT against Usp5, the z-score is inactive: -0.673.

Take GGAUUCACACAAUGGCAAGTT against Rpl39: the z-score is inactive: 1.16. As for GGCUACAGCAGGAGAAUCATT against Bicdl2, the z-score was inactive: 0.296. The value for GCUGGUGUCAUUAGACAGUTT against Npc1l1 was inactive: 0.312. The value for GCACUUGAACCGUGAGUGUTT against Det1 was inactive: 1.43. Consider CCUGAUUGUGUGUUCAUAATT against Ccdc92, for which the z-score is inactive: 0.229. As to GCUUUACGAUACUCCAUAUTT against Shd, the z-score is inactive: -0.506. Consider GGGCAGUCCUCGUUUCUUATT against Rdm1, for which the z-score was inactive: 0.153. The value for GGCAAAGGCACUGUCAGUGTT against Ddx60 was inactive: -1.68; that for GUGGCAGCUGACAUGAAUGTT against Plac8 was inactive: -0.138; that for GGAAAUAGGCAACAAAUAGTT against Gm4894 was inactive: -0.982. For the sequence GGCAAUGGAGAGAGAGAUGTT against Patl1, the z-score is active: -2.36.

With GGCCUGUGGAAGAAAUACGTT against Pdhb, the z-score is inactive: 1.82. Next, GGAGCAUUUCCUCACAACATT against Idh3g: inactive: -1.18; GCACUUUUGUAAAAAUCACTT against Aak1: inactive: -0.825. In the case of CGUAAUACAAUCCAGUUCATT against Aqr, the z-score is active: -2.18.

On to GCUACCUGAAACACAGCAATT against Hes5, for which the z-score was inactive: -0.334. Take GGAACAACAUCCGUAUUGCTT against Brsk2: the z-score was inactive: -0.3.

Turning to GCAUGUAGAUACGUGGGUATT against Usp38, the z-score is inactive: -0.383. In the case of GGGAAUUUGUGAGCUAGAATT against Cinp, the z-score was inactive: -1.94. For the sequence CCAAGAUUGACAUCAUCCGTT against Pkn1, the z-score is inactive: -0.595. The value for CCUAGUGUGUUAAUUGUAATT against Ric1 was inactive: -1.28; that for GCCUAGCUGAAAACGUGUCTT against Cog4 was active: 5.04. On to GGAACAACAUGAUUGUCGUTT against Ugt1a6a, for which the z-score was inactive: 1.24. With GGUUAAAUCCCUGAUGUAUTT against Ptdss1, the z-score is inactive: -0.613. The value for GGAGGGUACUCACAGGAAATT against Olfr411 was active: -2.05; that for GCUAGCCGUGUUUUCUAUUTT against Twist2 was inactive: 1.43. As to GGUUUUGUUCAGGGAUCAUTT against Ppm1m, the z-score was inactive: 0.329. Next, GGACAACACUAUCAACAAATT against Iqce: inactive: -0.778; CCUCAAUGAGAGUCUAAUGTT against Olfr97: inactive: -1.63; GGUGUCUGAGUAAUUCUGGTT against Zscan5b: inactive: -1.55. For the sequence GGACUGAACCCAAAUGCCUTT against Chtf8, the z-score was inactive: -1.45. The value for CGCAGUGUGUCUCAUUUAATT against Anxa5 was inactive: 1.61; that for AACCGUUAUUAAAAGUGGGTT against Mucl2 was inactive: -1.27. Next, GGUGUAAGAACUUCAAGUUTT against Tlr9: inactive: 0.199. The value for GGUCAACAACCUCAUCUGCTT against Lhx6 was inactive: -0.406; that for GGUGUUGUGGAAUAUUUAATT against Cnot6l was inactive: 1.23.

For the sequence GGAUGGACCGGAGACAACUTT against Brs3, the z-score was inactive: 0.533. CCCAAGAAUUCAAAUCCUATT against Rgr: the z-score was inactive: -1.39. The value for GGACUGAAGUGAAAUAAAUTT against Trav13-5 was inactive: -0.949; that for GGACUAUCAGGACCUUUUUTT against Dnajb3 was inactive: -0.363; that for CCUUGAGCACAUCUGCUUGTT against Serpina3k was inactive: -1.52. With CCCGGAAUGUUUAGUAUCGTT against Fermt1, the z-score is inactive: -1.25. Next, CCAUCUCCUUCAUUCUGUGTT against Olfr444: inactive: -1.15; UGGUCACCUUUCUCUUAUUTT against Tas2r140: inactive: -0.575; GGGAAACUCUUUGAAGAUATT against Lsm5: inactive: -0.601.

GGCAACUGUUGGAUUGAUUTT against Ctnnb1: the z-score was inactive: -0.201. For GGACUUUAGUGACAGCUAUTT against Fam243, the z-score is inactive: -0.233. As to CCCUAUGUUCUUUGUCUAUTT against Brinp1, the z-score is inactive: -1.26. The value for GGCGCAUAUGUAGCACCUATT against Egfl8 was inactive: -0.24; that for GGCCUAUCUCAUCUAUUUCTT against Ptpru was inactive: 0.0271; that for GGAGUUUGUAACCCUCCUGTT against Cabp7 was inactive: 1.07. On to GGGACCAGAUCAAGACACUTT against Shroom2, for which the z-score is inactive: -0.624. For GGACAGAUUUGUGAAUGAUTT against Rcn2, the z-score is inactive: -0.379.
